# According to article PMC9674678:
# No constants are given. Whether binding was seen depends on the method and setting. In cells and extracts the contact can be indirect. These calls come from enrichment with a bait or labelling near it, and not all partners need be listed. Sequences can lack the tags named with a protein.
# T1: GFP-tagged GINS subunit Psf2 (S. cerevisiae) (UniProt P40359)
# T1 sequence: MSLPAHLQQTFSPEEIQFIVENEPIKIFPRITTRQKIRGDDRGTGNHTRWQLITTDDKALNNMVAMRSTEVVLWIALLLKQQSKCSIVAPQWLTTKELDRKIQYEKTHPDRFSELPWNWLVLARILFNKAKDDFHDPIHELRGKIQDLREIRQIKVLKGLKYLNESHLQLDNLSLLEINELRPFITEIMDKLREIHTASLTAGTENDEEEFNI
# B1: DNA repair protein Rad5 (protein, UniProt P32849 1-1169)
# chain: MSHIEQEERKRFFNDDLDTSETSLNFKSENKESFLFANSHNDDDDDVVVSVSDTTEGEGDRSIVPVRREIEEEGQNQFITELLRIIPEMPKDLVMELNEKFGSQEEGLSLALSHYFDHNSGTSISKIPSSPNQLNTLSDTSNSTLSPSSFHPKRRRIYGFRNQTRLEDKVTWKRFIGALQVTGMATRPTVRPLKYGSQMKLKRSSEEISATKVYDSRGRKKASMASLVRIFDIQYDREIGRVSEDIAQILYPLLSSHEISFEVTLIFCDNKRLSIGDSFILQLDCFLTSLIFEERNDGESLMKRRRTEGGNKREKDNGNFGRTLTETDEELESRSKRLALLKLFDKLRLKPILDEQKALEKHKIELNSDPEIIDLDNDEICSNQVTEVHNNLRDTQHEEETMNLNQLKTFYKAAQSSESLKSLPETEPSRDVFKLELRNYQKQGLTWMLRREQEFAKAASDGEASETGANMINPLWKQFKWPNDMSWAAQNLQQDHVNVEDGIFFYANLHSGEFSLAKPILKTMIKGGILSDEMGLGKTVAAYSLVLSCPHDSDVVDKKLFDIENTAVSDNLPSTWQDNKKPYASKTTLIVVPMSLLTQWSNEFTKANNSPDMYHEVYYGGNVSSLKTLLTKTKTPPTVVLTTYGIVQNEWTKHSKGRMTDEDVNISSGLFSVNFYRIIIDEGHNIRNRTTVTSKAVMALQGKCKWVLTGTPIINRLDDLYSLVKFLELDPWRQINYWKTFVSTPFESKNYKQAFDVVNAILEPVLLRRTKQMKDKDGKPLVELPPKEVVIKRLPFSKSQDLLYKFLLDKAEVSVKSGIARGDLLKKYSTILVHILRLRQVCCHPGLIGSQDENDEDLSKNNKLVTEQTVELDSLMRVVSERFDNSFSKEELDAMIQRLKVKYPDNKSFQSLECSICTTEPMDLDKALFTECGHSFCEKCLFEYIEFQNSKNLGLKCPNCRNQIDACRLLALVQTNSNSKNLEFKPYSPASKSSKITALLKELQLLQDSSAGEQVVIFSQFSTYLDILEKELTHTFSKDVAKIYKFDGRLSLKERTSVLADFAVKDYSRQKILLLSLKAGGVGLNLTCASHAYMMDPWWSPSMEDQAIDRLHRIGQTNSVKVMRFIIQDSIEEKMLRIQEKKRTIGEAMDTDEDERRKRRIEEIQMLFE
# B2: topoisomerase Top1 (protein, UniProt P04786 1-769)
# chain: MTIADASKVNHELSSDDDDDVPLSQTLKKRKVASMNSASLQDEAEPYDSDEAISKISKKKTKKIKTEPVQSSSLPSPPAKKSATSKPKKIKKEDGDVKVKTTKKEEQENEKKKREEEEEEDKKAKEEEEEYKWWEKENEDDTIKWVTLKHNGVIFPPPYQPLPSHIKLYYDGKPVDLPPQAEEVAGFFAALLESDHAKNPVFQKNFFNDFLQVLKESGGPLNGIEIKEFSRCDFTKMFDYFQLQKEQKKQLTSQEKKQIRLEREKFEEDYKFCELDGRREQVGNFKVEPPDLFRGRGAHPKTGKLKRRVNPEDIVLNLSKDAPVPPAPEGHKWGEIRHDNTVQWLAMWRENIFNSFKYVRLAANSSLKGQSDYKKFEKARQLKSYIDAIRRDYTRNLKSKVMLERQKAVAIYLIDVFALRAGGEKSEDEADTVGCCSLRYEHVTLKPPNTVIFDFLGKDSIRFYQEVEVDKQVFKNLTIFKRPPKQPGHQLFDRLDPSILNKYLQNYMPGLTAKVFRTYNASKTMQDQLDLIPNKGSVAEKILKYNAANRTVAILCNHQRTVTKGHAQTVEKANNRIQELEWQKIRCKRAILQLDKDLLKKEPKYFEEIDDLTKEDEATIHKRIIDREIEKYQRKFVRENDKRKFEKEELLPESQLKEWLEKVDEKKQEFEKELKTGEVELKSSWNSVEKIKAQVEKLEQRIQTSSIQLKDKEENSQVSLGTSKINYIDPRLSVVFCKKYDVPIEKIFTKTLREKFKWAIESVDENWRF
# B3: helicase Rrm3 (protein, UniProt P38766 1-723)
# chain: MFRSHASGNKKQWSKRSSNGSTPAASASGSHAYRQQTLSSFFMGCGKKSAAASKNSTTIIDLESGDEGNRNITAPPRPRLIRNNSSSLFSQSQGSFGDDDPDAEFKKLVDVPRLNSYKKSSRSLSMTSSLHKTASASTTQKTYHFDEDETLREVTSVKSNSRQLSFTSTINIEDSSMKLSTDSERPAKRSKPSMEFQGLKLTVPKKIKPLLRKTVSNMDSMNHRSASSPVVLTMEQERVVNLIVKKRTNVFYTGSAGTGKSVILQTIIRQLSSLYGKESIAITASTGLAAVTIGGSTLHKWSGIGIGNKTIDQLVKKIQSQKDLLAAWRYTKVLIIDEISMVDGNLLDKLEQIARRIRKNDDPFGGIQLVLTGDFFQLPPVAKKDEHNVVKFCFESEMWKRCIQKTILLTKVFRQQDNKLIDILNAIRYGELTVDIAKTIRNLNRDIDYADGIAPTELYATRREVELSNVKKLQSLPGDLYEFKAVDNAPERYQAILDSSLMVEKVVALKEDAQVMMLKNKPDVELVNGSLGKVLFFVTESLVVKMKEIYKIVDDEVVMDMRLVSRVIGNPLLKESKEFRQDLNARPLARLERLKILINYAVKISPHKEKFPYVRWTVGKNKYIHELMVPERFPIDIPRENVGLERTQIPLMLCWALSIHKAQGQTIQRLKVDLRRIFEAGQVYVALSRAVTMDTLQVLNFDPGKIRTNERVKDFYKRLETLK
# Target: T1, GFP-tagged GINS subunit Psf2 (S. cerevisiae)
# Experiment: affinity purification with mass spectrometry; GFP-Trap agarose beads on DNase-treated yeast extracts (100 mM potassium acetate, 0.1% NP-40, 10% glycerol, 2 h at 4 °C); bait GFP-tagged Psf2 against untagged control; cells in S-phase, HU-arrested in S-phase, or after 3 h of G1 replication (CDK/DDK bypass); label-free quantitative MS
row,Binder,binding
1,B1,binds
2,B2,binds
3,B3,binds
